The target of assay [1] is Deinococcus radiodurans RecA, full length (D. radiodurans) (UniProt P42443). In words: two-hybrid; yeast strain pJ69-4A; Gal4-AD fusions (pGAD-C1) and Gal4-BD fusions (pGBDU-C1); clones spotted as 1/5 dilutions on synthetic complete medium lacking leucine, uracil and histidine; 5 days at 28°C.
For assay [2], the target named is T1, Deinococcus radiodurans DdrB (D. radiodurans) (UniProt Q9RY80).
T1 sequence: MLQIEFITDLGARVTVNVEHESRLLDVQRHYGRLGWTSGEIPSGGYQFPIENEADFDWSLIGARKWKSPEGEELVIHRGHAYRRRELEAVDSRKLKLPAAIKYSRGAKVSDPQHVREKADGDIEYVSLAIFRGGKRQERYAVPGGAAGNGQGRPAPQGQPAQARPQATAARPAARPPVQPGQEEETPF
Described as above.

These are yes or no findings as the source states them, for the method shown. Some binding calls cover weakened binding; strength is not graded here.

B1: Deinococcus radiodurans RecA, full length (protein, UniProt P42443 1-363)
chain: MSKDATKEISAPTDAKERSKAIETAMSQIEKAFGKGSIMKLGAESKLDVQVVSTGSLSLDLALGVGGIPRGRITEIYGPESGGKTTLALAIVAQAQKAGGTCAFIDAEHALDPVYARALGVNTDELLVSQPDNGEQALEIMELLVRSGAIDVVVVDSVAALTPRAEIEGDMGDSLPGLQARLMSQALRKLTAILSKTGTAAIFINQVREKIGVMYGNPETTTGGRALKFYASVRLDVRKIGQPTKVGNDAVANTVKIKTVKNKVAAPFKEVELALVYGKGFDQLSDLVGLAADMDIIKKAGSFYSYGDERIGQGKEKTIAYIAERPEMEQEIRDRVMAAIRAGNAGEAPALAPAPAAPEAAEA
Consider B1, for which the binding entry in assay [1] was “binds”.

B2: Deinococcus radiodurans RecO (protein, UniProt Q9RW50 1-244)
chain: MRSRTANRSGIVIRRRVTPAGDIIVTLLTPQGKLKAIARGGVKGPLSSSLNLFHHVGVQVYQGPHNDLASVKQAVLEGALPTLAEPERYAFAHLMAEFADALFQEGEFSEQAFDLFAASLRGVAHQPDPEWVALVMSYKLLGLAGVIPQTARCARCGAPDPEHPDPLGGQLLCSKCAALPPYPPAVLDFLRHAVRRTVRASFEQPVPSADRPALWRALEKFVTVQVGGVHSWRQLVPSGVPVLS
Consider B2, for which the binding entry in assay [2] was “no binding”.

The values above are taken from paper PMC7314969, “Natural Transformation in Deinococcus radiodurans: A Genetic Analysis Reveals the Major Roles of DprA, DdrB, RecA, RecF, and RecO Proteins”.
